From US12016874B2, “Methods and compositions for treating carbapenem-resistant klebsiella pneumoniae infections” (City University of Hong Kong, priority 2022, dated 2024)
For at least one compound, name, drawing or mass did not settle the structure.

System: CR-HvKP 1
Settings: 12811 g/mL of rifampicin

With `CO[C@H]1/C=C/O[C@@]2(C)Oc3c(C)c(O)c4c(O)c(c(/C=N/N5CCN(C)CC5)c(O)c4c3C2=O)NC(=O)/C(C)=C\C=C\[C@H](C)[C@H](O)[C@@H](C)[C@@H](O)[C@@H](C)[C@H](OC(C)=O)[C@@H]1C` [rifampicin] the “bacterial population of CR-HvKP 1 in time-kill curve” value was “reduced at 6 hours, but regrew after 24 hours”.
